Results reported in patent US6365734B1, “Cucurbituril derivatives, their preparation methods and uses” (Pohang University of Science and Technology Foundation, priority 1999, dated 2002).

Assay: Organic dye removal from water, UV absorption of filtrate
Experimental: 30 mg of organic dye, Direct Red 5B (commercially available from Ciba-Geigy Co.) was dissolved in 150 ml of water to prepare an organic dye solution. To half the organic dye solution, 150 mg of cucurbit[7]uril was added and stirred for 30 minutes.
The precipitate was filtered, and UV absorption spectra were measured at λmax=510 nm on the filtrate and the remaining half of the organic dye solution which was not treated with the cucurbut[7]uril.
R=UV absorption intensity of the dye solution treated with cucurbit[7]uril ×100/UV absorption intensity of the dye solution before the treatment with cucurbit[7]uril.
The following dyes were used: Reactive Blue HE-G (produced by Kyung-In Co.), Direct Solophenyl Violet 4BL (produced by Ciba-Geigy Co.), Reactive Navy Blue HE-R 150 (produced by Kyung-In Co.), Disperse Yellow E-3 (produced by LG Co.), Disperse T/Q Blue S-GL (produced by LG Co.) and Orange TGL (produced by Ciba-Geigy Co.).

cucurbit[7]uril
Absorption intensity after treatment (Direct Red 5B, λmax 510 nm, 1.43 before treatment): 2.37×10^−2
Absorption intensity after treatment (Reactive Blue HE-G, λmax 626 nm, 1.13 before treatment): 3.93 × 10^−2
Absorption intensity after treatment (Reactive Blue HE-G, λmax 662 nm, 1.18 before treatment): 3.77 × 10^−3

Where no unit stands, none is given here, and values compare only within one read-out.
